Binding data for one substance are collected here from paper doi:10.1101/2021.01.04.425348.

Amino acid sequences for entries named in this document (tags omitted). Residues count along the entry.
UniProt Q8NBS9, residues 33-432: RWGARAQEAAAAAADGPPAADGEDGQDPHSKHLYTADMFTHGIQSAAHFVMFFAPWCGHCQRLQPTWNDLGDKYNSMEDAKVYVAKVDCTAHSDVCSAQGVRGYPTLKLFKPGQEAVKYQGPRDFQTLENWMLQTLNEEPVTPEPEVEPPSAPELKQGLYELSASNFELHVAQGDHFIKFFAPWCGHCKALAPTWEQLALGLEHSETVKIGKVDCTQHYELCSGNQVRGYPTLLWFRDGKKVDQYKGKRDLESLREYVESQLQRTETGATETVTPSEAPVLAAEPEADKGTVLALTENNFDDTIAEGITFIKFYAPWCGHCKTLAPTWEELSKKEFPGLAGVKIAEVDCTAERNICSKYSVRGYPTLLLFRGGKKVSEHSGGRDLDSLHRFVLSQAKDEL

No constants are given. Whether binding was seen depends on the method and setting.

The target of the test is ER-resident protein 46 (ERp46), wild type (human) (UniProt Q8NBS9). In words: high-speed atomic force microscopy.

Regarding “ER-resident protein 46 (ERp46), wild type (from UniProt Q8NBS9 33-432) (enzyme)”, the binding entry is reported as “no binding (tested: 1 nM)”.
